Results reported in article doi:10.1101/2021.10.08.463358.
No constants are given. Whether binding was seen depends on the method and setting. Binding seen in cells or lysates may run through a third protein. Some entries that bind do so weakly or less than the wild type.

Biological target: T1, Venus-XLG2 (EXTRA LARGE G-PROTEIN 2, wild type) (Arabidopsis thaliana) (UniProt C6KIE6)
T1 sequence: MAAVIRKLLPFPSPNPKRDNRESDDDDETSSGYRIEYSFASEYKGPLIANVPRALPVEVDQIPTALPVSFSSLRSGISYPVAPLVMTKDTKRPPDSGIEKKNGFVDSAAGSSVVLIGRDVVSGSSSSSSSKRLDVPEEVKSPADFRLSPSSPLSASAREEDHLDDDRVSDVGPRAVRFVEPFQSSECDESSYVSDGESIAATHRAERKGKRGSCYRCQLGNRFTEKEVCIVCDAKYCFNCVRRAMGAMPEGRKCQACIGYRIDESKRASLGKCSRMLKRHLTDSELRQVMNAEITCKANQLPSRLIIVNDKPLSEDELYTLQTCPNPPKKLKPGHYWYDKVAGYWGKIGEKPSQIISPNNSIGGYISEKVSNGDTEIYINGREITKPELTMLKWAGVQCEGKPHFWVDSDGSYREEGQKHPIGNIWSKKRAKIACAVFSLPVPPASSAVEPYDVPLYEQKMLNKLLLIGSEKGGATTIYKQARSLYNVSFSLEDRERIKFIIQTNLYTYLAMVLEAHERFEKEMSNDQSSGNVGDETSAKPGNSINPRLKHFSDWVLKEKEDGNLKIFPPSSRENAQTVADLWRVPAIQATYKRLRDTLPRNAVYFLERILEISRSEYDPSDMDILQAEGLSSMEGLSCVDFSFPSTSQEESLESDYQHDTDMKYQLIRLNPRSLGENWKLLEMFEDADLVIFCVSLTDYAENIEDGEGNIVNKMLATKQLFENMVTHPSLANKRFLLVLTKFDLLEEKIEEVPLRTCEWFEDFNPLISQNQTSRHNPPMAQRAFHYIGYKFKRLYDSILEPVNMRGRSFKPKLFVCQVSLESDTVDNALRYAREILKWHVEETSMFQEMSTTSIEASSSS
Test: co-IP

- binding: binds
B1: AGB1 (heterotrimeric G-protein beta subunit) (protein, UniProt P49177 1-377)
chain: MSVSELKERHAVATETVNNLRDQLRQRRLQLLDTDVARYSAAQGRTRVSFGATDLVCCRTLQGHTGKVYSLDWTPERNRIVSASQDGRLIVWNALTSQKTHAIKLPCAWVMTCAFSPNGQSVACGGLDSVCSIFSLSSTADKDGTVPVSRMLTGHRGYVSCCQYVPNEDAHLITSSGDQTCILWDVTTGLKTSVFGGEFQSGHTADVLSVSISGSNPNWFISGSCDSTARLWDTRAASRAVRTFHGHEGDVNTVKFFPDGYRFGTGSDDGTCRLYDIRTGHQLQVYQPHGDGENGPVTSIAFSVSGRLLFAGYASNNTCYVWDTLLGEVVLDLGLQQDSHRNRISCLGLSADGSALCTGSWDSNLKIWAFGGHRRVI
